In the data set the target is lysozyme (UniProt P00698). Briefly: aptamer strand-displacement sensor (lysozyme-triggered RCA, fluorescence/TIRFM read-out). The following applies: Klenow, Nb.BbvCI, dNTP and primers present, indirect amplified read-out, circle template is covalently closed, 1x NEBuffer 2, dNTP 0.25 mM each, 37 C, 3 h, commercial protein.

For at least one entry, the source does not settle the construct or the ends of the probe. At least one verdict rests on a figure or table, not on a statement of the authors.

In the case of “ATCTACGAATTCATCAGGGCTAAAGAGTGCAGAGTTACTTAGAGGCCTCAGCGGTAATGGTGTCTT / CCTCTAAGTAACTCTGAGGATTAGGATTAGGAGGAGGAGGTAGGGCGGCTTCGGATTTTTTTTTTTTGACACCATTACC”, the binding result is “binds”.

Values taken from paper PMC3982516.
